# From the supplement of paper PMC12542422
# Counter-ions that a name gives are not always drawn. ± gives the standard deviation of the averaged measurements. Some of the results follow. Values are raw readings; no control value is given beside them.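 HeLa cells imaged for ribosome-assembly readouts (ENP1 staining with or without export block, or inducible tagged ribosomal protein reporters); machine learning classified each cell's signal location against solvent (DMSO) controls. Hits exceeded the DMSO false-positive mean by five standard deviations, then were visually confirmed; three biological replicates.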
# How the values were obtained:
# [1] = system: HeLa K (ENP1 immunofluorescence, +LMB); assay: fraction of cells with nucleolar or nucleolar/nucleoplasmic ENP1 signal (MainHitrate); higher = more cells with nucleolar/nuclear readout signal (for ENP1 -LMB: less RNAPI inhibition; for +LMB ENP1 and RP reporters: stronger nuclear/nucleolar retention, i.e. ribosome biogenesis defect); conditions: concentration: 1 µM; treatment time: 6 h; ENP1 +LMB; leptomycin B: 20 nM, last 1.5 h
# [2] = system: HeLa K (ENP1 immunofluorescence, no LMB); assay: as above; conditions: concentration: 1 µM; treatment time: 6 h; ENP1 -LMB; leptomycin B: none
# [3] = system: HeLa RPS2-YFP reporter; assay: fraction of reporter-positive cells with nuclear (nucleolar or nucleolar/nucleoplasmic) RPS2-YFP (MainHitrate); higher = more cells with nucleolar/nuclear readout signal (for ENP1 -LMB: less RNAPI inhibition; for +LMB ENP1 and RP reporters: stronger nuclear/nucleolar retention, i.e. ribosome biogenesis defect); conditions: concentration: 1 µM; treatment time: 6 h
# [4] = system: HeLa RPL29-GFP reporter; assay: fraction of reporter-positive cells with nuclear (nucleolar or nucleolar/nucleoplasmic) RPL29-GFP (MainHitrate); higher = more cells with nucleolar/nuclear readout signal (for ENP1 -LMB: less RNAPI inhibition; for +LMB ENP1 and RP reporters: stronger nuclear/nucleolar retention, i.e. ribosome biogenesis defect); conditions: concentration: 1 µM; treatment time: 6 h
Structure (SMILES),fraction [1],fraction [2],fraction of reporter-positive cells with nuclear [3],fraction of reporter-positive cells with nuclear [4]
O=C(Nc1ccccc1)c1ccccc1O [Salicylanilide],0.0445 ± 0.057,0.984 ± 0.028,0.115 ± 0.071,0.221 ± 0.065
CN(C/C=C/C#CC(C)(C)C)Cc1cccc2ccccc12 [Terbinafine hydrochloride (Lamisil)],0.135 ± 0.21,0.9944 ± 0.0097,0.14 ± 0.099,0.247 ± 0.1
CC(C)C(=O)Nc1ccc([N+](=O)[O-])c(C(F)(F)F)c1 [Flutamide (Eulexin)],0.12 ± 0.17,0.992 ± 0.013,0.13 ± 0.12,0.215 ± 0.08
CC(C)C[C@H](NC(=O)[C@H](CCc1ccccc1)NC(=O)CN1CCOCC1)C(=O)N[C@@H](Cc1ccccc1)C(=O)N[C@@H](CC(C)C)C(=O)[C@@]1(C)CO1 [Carfilzomib (PR-171)],0.887 ± 0.066,0.971 ± 0.05,0.584 ± 0.48,0.668 ± 0.36
O=C(c1ccc(OCCN2CCCCC2)cc1)c1c(-c2ccc(O)cc2)sc2cc(O)ccc12 [Evista (Raloxifene Hydrochloride)],0.11 ± 0.11,0.9983 ± 0.003,0.116 ± 0.095,0.22 ± 0.074
COc1cc2c(cc1Cc1cccc(Cl)c1F)c(=O)c(C(=O)O)cn2[C@H](CO)C(C)C [Elvitegravir (GS-9137)],0.113 ± 0.16,0.992 ± 0.014,0.105 ± 0.061,0.215 ± 0.076
C[C@H]1NC(=O)NC1=O [Methylhydantoin-5-(D)],0.246 ± 0.36,0.9964 ± 0.0062,0.184 ± 0.14,0.289 ± 0.25
CC(S)C(=O)NCC(=O)O (centres undefined) [Tiopronin (Thiola)],0.0941 ± 0.14,0.992 ± 0.013,0.113 ± 0.076,0.221 ± 0.084
CSc1nc2cc(Cl)c(Oc3cccc(Cl)c3Cl)cc2[nH]1 [Triclabendazole],0.0926 ± 0.13,0.982 ± 0.03,0.121 ± 0.085,0.207 ± 0.081
CNNCc1ccc(C(=O)NC(C)C)cc1 [Procarbazine HCl (Matulane)],0.113 ± 0.15,0.99 ± 0.017,0.109 ± 0.096,0.212 ± 0.081
COc1ccccc1OCC(O)CO (centres undefined) [Guaifenesin (Guaiphenesin)],0.0986 ± 0.097,0.9986 ± 0.0024,0.114 ± 0.076,0.224 ± 0.072
[I-].[K+] [Potassium iodide],0.138 ± 0.19,0.992 ± 0.015,0.136 ± 0.058,0.223 ± 0.1
CCOC(=O)C1=C(COCCN)NC(C)=C(C(=O)OC)C1c1ccccc1Cl (centres undefined) [Amlodipine besylate (Norvasc)],0.066 ± 0.09,0.9954 ± 0.008,0.109 ± 0.12,0.218 ± 0.086
O=C(C1CCCCC1)N1CC(=O)N2CCc3ccccc3C2C1 (centres undefined) [Praziquantel (Biltricide)],0.0629 ± 0.04,0.9976 ± 0.0041,0.0948 ± 0.073,0.218 ± 0.058
CC1(C)S[C@@H]2[C@H](NC(=O)[C@H](NC(=O)N3CCNC3=O)c3ccccc3)C(=O)N2[C@H]1C(=O)O [Azlocillin sodium salt],0.0991 ± 0.14,0.983 ± 0.029,0.141 ± 0.1,0.21 ± 0.073
O=C(NCCN1CCOCC1)c1ccc(Cl)cc1 [Moclobemide],0.104 ± 0.16,0.988 ± 0.02,0.106 ± 0.085,0.201 ± 0.061
Nc1nc(NC2CC2)c2ncn([C@H]3C=C[C@@H](CO)C3)c2n1 [Abacavir sulfate],0.117 ± 0.17,0.988 ± 0.02,0.121 ± 0.095,0.201 ± 0.079
O=C(NCCO[N+](=O)[O-])c1cccnc1 [Nicorandil (Ikorel)],0.134 ± 0.18,0.983 ± 0.03,0.122 ± 0.056,0.24 ± 0.14
CCOC(=O)c1ncn2c1CN(C)C(=O)c1cc(F)ccc1-2 [Flumazenil],0.0404 ± 0.023,0.9977 ± 0.004,0.0893 ± 0.05,0.214 ± 0.051
CN1CC(=O)N2[C@H](c3ccc4c(c3)OCO4)c3[nH]c4ccccc4c3C[C@@H]2C1=O [Tadalafil (Cialis)],0.0669 ± 0.051,0.9986 ± 0.0024,0.112 ± 0.044,0.254 ± 0.075
Cc1cccc(CN2CCN(C(c3ccccc3)c3ccc(Cl)cc3)CC2)c1 (centres undefined) [Meclizine 2HCl],0.0926 ± 0.14,0.994 ± 0.011,0.112 ± 0.074,0.286 ± 0.076
Cc1cc(C)nc(NS(=O)(=O)c2ccc(N)cc2)n1 [Sulfamethazine],0.0674 ± 0.089,0.983 ± 0.03,0.0939 ± 0.059,0.172 ± 0.019
CCCc1ncc(C[n+]2ccccc2C)c(N)n1 [Amprolium HCl],0.0805 ± 0.12,0.988 ± 0.02,0.121 ± 0.1,0.216 ± 0.069
CCCCC(=O)O[C@]1(C(=O)CO)[C@@H](C)C[C@H]2[C@@H]3CCC4=CC(=O)C=C[C@]4(C)[C@@]3(F)[C@@H](O)C[C@@]21C [Betamethasone valerate (Betnovate)],0.076 ± 0.056,0.9984 ± 0.0027,0.14 ± 0.12,0.253 ± 0.044
CCOC(=O)CCC(=O)O[C@H]1[C@H](O[C@@H]2[C@@H](C)[C@H](O[C@H]3C[C@@](C)(OC)[C@@H](O)[C@H](C)O3)[C@@H](C)C(=O)O[C@H](CC)[C@@](C)(O)[C@H](O)[C@@H](C)C(=O)[C@H](C)C[C@@]2(C)O)O[C@H](C)C[C@@H]1N(C)C [Erythromycin Ethylsuccinate],0.0741 ± 0.046,0.9955 ± 0.0078,0.129 ± 0.092,0.235 ± 0.047
"CCOC(=O)C1=C(C)NC(C)=C(C(=O)OCC)C1c1ccccc1/C=C/C(=O)OC(C)(C)C [Lacidipine (Lacipil, Motens)]",0.0956 ± 0.12,0.992 ± 0.014,0.141 ± 0.075,0.227 ± 0.086

# Some values from the entries so far:
# Value of CSc1nc2cc(Cl)c(Oc3cccc(Cl)c3Cl)cc2[nH]1 [Triclabendazole] under fraction of reporter-positive cells with nuclear [4]: 0.207 ± 0.081
# Value of CCOC(=O)CCC(=O)O[C@H]1[C@H](O[C@@H]2[C@@H](C)[C@H](O[C@H]3C[C@@](C)(OC)[C@@H](O)[C@H](C)O3)[C@@H](C)C(=O)O[C@H](CC)[C@@](C)(O)[C@H](O)[C@@H](C)C(=O)[C@H](C)C[C@@]2(C)O)O[C@H](C)C[C@@H]1N(C)C [Erythromycin Ethylsuccinate] under fraction of reporter-positive cells with nuclear [3]: 0.129 ± 0.092
